Results are given in words; binding and its absence hold for the method and conditions named. Some entries that bind do so weakly or less than the wild type. For some of these results: Where a sequence is shown, tags or fusion partners need not be part of it.
Key:
[1] = target: T1, BMP9 (UniProt Q9UK05); assay: Biacore, receptor captured by anti-Fc
T1 sequence (looked up): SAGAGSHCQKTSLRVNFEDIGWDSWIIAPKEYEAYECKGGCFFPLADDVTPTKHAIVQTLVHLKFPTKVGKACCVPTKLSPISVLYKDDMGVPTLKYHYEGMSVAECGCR

Amino acid sequences for entries named in this document (tags omitted). A change or cut given only in a name is not applied to a line headed by its entry. Residues count along the entry.
UniProt P22004, residues 375-513: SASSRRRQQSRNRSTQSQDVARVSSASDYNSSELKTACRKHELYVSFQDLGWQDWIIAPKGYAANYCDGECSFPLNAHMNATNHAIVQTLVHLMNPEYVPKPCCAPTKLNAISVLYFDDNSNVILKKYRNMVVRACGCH
UniProt P36896: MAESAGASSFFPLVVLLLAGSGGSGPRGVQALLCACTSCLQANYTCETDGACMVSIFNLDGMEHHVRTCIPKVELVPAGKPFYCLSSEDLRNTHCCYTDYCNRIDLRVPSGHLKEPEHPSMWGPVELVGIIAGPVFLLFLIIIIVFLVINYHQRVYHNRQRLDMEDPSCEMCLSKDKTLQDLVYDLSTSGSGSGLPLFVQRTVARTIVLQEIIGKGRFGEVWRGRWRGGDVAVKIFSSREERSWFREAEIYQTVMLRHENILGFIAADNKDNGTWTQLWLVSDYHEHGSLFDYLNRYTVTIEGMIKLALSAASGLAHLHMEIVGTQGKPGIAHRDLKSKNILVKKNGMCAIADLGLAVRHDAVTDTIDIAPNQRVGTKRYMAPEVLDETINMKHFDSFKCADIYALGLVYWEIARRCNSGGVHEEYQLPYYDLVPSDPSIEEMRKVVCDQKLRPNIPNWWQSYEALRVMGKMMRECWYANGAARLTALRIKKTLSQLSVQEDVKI
UniProt P27037: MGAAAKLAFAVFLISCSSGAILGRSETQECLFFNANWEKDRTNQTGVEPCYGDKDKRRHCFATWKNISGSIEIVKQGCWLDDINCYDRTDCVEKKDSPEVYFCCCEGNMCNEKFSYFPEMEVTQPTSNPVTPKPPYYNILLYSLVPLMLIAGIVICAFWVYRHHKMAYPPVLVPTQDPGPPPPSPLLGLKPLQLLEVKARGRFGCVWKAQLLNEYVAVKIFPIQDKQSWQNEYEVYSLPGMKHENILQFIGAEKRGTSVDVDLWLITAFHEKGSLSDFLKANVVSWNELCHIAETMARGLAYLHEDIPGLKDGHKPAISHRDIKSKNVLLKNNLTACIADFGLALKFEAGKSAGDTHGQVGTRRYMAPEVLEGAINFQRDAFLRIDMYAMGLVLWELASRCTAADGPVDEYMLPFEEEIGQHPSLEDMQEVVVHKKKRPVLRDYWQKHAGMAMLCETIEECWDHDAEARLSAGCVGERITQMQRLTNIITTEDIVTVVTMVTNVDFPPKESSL

[2] = target: BMP6 (UniProt P22004); assay: Biacore, receptor captured by anti-Fc
[3] = target: T2, activin B (UniProt P09529); assay: Biacore, receptor captured by anti-Fc
T2 sequence (looked up): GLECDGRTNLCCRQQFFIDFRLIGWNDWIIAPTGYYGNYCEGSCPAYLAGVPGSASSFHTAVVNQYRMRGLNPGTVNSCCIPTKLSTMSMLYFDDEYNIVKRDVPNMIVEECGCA

[4] = target: T3, GDF3 (UniProt Q9NR23); assay: Biacore, receptor captured by anti-Fc
T3 sequence (looked up): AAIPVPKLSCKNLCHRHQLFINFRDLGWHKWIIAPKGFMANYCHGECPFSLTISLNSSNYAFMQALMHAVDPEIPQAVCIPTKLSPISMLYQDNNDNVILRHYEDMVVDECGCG

[5] = target: T1, BMP9; assay: Biacore, as recalled in the reporter assay paragraph
[6] = target: T2, activin B; assay: as above
[7] = target: T1, BMP9; assay: Biacore, legend of FIG. 19
[8] = target: BMP6 (UniProt P22004); assay: Biacore, legend of FIG. 19
[9] = target: T2, activin B; assay: Biacore, legend of FIG. 19
[10] = target: T3, GDF3; assay: Biacore, legend of FIG. 19
[11] = target: T1, BMP9; assay: Biacore, receptor captured by anti-Fc; footnote: indeterminate due to transient nature of interaction
[12] = target: T2, activin B; assay: similar Biacore binding assay
[13] = target: T4, GDF8 (UniProt O14793); assay: Biacore, receptor captured by anti-Fc
T4 sequence (looked up): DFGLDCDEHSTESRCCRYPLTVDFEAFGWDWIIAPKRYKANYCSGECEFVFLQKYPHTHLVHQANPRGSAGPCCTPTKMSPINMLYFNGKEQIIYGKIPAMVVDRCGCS

[14] = target: T5, GDF11 (UniProt O95390 299-407); assay: Biacore, as recalled in the reporter assay paragraph
T5 sequence (looked up): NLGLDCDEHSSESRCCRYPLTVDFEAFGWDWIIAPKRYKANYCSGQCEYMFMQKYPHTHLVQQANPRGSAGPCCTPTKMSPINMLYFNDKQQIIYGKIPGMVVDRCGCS

[15] = target: T4, GDF8; assay: as above
[16] = target: T5, GDF11; assay: Biacore, legend of FIG. 19
[17] = target: T4, GDF8; assay: Biacore, legend of FIG. 19
[18] = target: T5, GDF11; assay: Biacore, receptor captured by anti-Fc
Experimental: A Biacore™-based binding assay was used to compare ligand binding selectivity of the ALK4-Fc:ActRIIB-Fc heterodimeric complex described above with that of ActRIIB-Fc and ALK4-Fc homodimer complexes. The ALK4-Fc:ActRIIB-Fc heterodimer, ActRIIB-Fc homodimer, and ALK4-Fc homodimer were independently captured onto the system using an anti-Fc antibody. Ligands were injected and allowed to flow over the captured receptor protein. Results are summarized in the table below, in which ligand off-rates (kd) most indicative of effective ligand traps are denoted in bold font.

Measured: binding

ALK4-Fc:ActRIIB-Fc heterodimer (from UniProt P36896 24-126; Q13705 20-134) (Fc fusion)
not listed: [12] | [13] | [14] | [15] | [16] | [17] | [18]
binds: all other assays above

ActRIIA-mFc (from UniProt P27037 21-135) (Fc fusion)
binds: [12]

B1: ActRIIB-Fc homodimer (Fc fusion, not shown: a dimerising Fc or GST)
chain: GRGEAETRECIYYNANWELERTNQSGLERCEGEQDKRLHCYASWRNSSGTIELVKKGCWLDDFNCYDRQECVATEENPQVYFCCCEGNFCNERFTHLPEAGGPEVTYEPPPTAPT
binds: [1] | [2] | [13] | [14] | [15] | [6] | [16] | [8] | [17] | [18]

— US20200384080A1 (published 2020)
